Data as given in the supplement of paper PMC12823440, “Inhibitors supercharge kinase turnover through native proteolytic circuits” (Nature, 2025).
Structures can show the parent of a compound that is named as a salt. The list shows a part of the results. The calls rarely recur for the same compound in another form.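 Kinases were expressed as nanoluciferase fusions in K562 cells and luminescence was read every 4 h between 2 and 18 h as percent of control, DMSO set to 100% and a positive control to 0%. A time point counts as decreased when the signal drops significantly (2 sigma). The hit call is the authors' own, does not follow from the count of time points alone, and its rule is not shown.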

Amino acid sequences for entries named in this document (tags omitted). A change or cut given only in a name is not applied to a line headed by its entry.
UniProt P07949, whole entry, looked up: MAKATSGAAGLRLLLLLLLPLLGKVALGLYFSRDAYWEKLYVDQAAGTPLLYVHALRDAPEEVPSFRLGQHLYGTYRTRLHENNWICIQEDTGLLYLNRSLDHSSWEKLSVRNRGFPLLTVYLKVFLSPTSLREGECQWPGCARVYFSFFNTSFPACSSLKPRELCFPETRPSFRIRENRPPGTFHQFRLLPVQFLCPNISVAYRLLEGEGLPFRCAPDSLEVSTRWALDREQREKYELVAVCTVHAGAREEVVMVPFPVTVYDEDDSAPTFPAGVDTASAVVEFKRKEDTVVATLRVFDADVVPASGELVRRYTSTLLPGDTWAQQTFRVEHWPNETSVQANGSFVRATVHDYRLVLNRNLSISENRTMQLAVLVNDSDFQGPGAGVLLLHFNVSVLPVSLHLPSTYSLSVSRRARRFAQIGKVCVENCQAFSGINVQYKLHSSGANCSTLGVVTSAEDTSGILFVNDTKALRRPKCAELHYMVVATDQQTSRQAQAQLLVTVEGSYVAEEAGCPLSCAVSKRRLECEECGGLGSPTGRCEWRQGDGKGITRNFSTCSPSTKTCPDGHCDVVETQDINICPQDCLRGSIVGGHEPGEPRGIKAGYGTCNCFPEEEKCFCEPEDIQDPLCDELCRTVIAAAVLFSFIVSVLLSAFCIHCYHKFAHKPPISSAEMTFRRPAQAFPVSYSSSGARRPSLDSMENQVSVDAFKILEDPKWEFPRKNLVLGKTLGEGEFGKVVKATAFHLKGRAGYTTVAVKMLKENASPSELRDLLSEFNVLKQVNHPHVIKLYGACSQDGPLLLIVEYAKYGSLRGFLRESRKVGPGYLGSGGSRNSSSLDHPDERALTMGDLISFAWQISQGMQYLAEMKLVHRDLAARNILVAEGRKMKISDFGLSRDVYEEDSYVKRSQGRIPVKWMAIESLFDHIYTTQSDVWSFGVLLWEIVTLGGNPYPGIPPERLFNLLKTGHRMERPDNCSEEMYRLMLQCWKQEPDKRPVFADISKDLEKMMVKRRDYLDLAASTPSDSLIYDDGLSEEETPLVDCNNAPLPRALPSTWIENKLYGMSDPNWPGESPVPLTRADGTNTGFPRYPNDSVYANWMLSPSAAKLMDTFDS
UniProt P07949, whole entry M918T, looked up: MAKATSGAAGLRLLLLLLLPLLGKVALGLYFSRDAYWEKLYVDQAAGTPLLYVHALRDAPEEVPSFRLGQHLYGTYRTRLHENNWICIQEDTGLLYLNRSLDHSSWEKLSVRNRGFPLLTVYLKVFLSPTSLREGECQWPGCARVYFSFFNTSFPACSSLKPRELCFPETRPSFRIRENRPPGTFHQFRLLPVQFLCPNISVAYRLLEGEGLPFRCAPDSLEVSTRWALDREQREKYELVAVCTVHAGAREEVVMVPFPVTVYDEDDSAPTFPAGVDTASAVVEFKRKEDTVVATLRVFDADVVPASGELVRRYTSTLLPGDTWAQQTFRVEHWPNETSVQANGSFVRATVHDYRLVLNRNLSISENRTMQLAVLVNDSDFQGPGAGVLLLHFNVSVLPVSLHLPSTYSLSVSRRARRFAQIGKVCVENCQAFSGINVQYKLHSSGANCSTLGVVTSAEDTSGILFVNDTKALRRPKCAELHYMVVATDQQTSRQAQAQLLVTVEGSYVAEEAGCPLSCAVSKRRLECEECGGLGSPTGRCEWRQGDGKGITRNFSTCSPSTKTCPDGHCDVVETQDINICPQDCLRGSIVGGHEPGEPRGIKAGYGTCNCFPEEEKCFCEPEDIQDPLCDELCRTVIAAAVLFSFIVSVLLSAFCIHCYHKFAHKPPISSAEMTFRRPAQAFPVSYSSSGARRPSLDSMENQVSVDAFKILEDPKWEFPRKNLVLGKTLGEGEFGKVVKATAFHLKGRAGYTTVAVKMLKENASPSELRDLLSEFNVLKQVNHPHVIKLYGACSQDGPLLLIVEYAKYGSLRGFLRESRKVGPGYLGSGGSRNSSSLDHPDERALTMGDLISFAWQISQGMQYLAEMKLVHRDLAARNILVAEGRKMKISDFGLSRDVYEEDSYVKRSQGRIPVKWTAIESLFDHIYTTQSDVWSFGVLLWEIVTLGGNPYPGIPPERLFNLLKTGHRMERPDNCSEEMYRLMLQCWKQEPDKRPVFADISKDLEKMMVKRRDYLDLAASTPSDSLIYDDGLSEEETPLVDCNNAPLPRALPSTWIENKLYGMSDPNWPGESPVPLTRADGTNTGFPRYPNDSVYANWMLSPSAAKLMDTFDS
UniProt Q9BRS2: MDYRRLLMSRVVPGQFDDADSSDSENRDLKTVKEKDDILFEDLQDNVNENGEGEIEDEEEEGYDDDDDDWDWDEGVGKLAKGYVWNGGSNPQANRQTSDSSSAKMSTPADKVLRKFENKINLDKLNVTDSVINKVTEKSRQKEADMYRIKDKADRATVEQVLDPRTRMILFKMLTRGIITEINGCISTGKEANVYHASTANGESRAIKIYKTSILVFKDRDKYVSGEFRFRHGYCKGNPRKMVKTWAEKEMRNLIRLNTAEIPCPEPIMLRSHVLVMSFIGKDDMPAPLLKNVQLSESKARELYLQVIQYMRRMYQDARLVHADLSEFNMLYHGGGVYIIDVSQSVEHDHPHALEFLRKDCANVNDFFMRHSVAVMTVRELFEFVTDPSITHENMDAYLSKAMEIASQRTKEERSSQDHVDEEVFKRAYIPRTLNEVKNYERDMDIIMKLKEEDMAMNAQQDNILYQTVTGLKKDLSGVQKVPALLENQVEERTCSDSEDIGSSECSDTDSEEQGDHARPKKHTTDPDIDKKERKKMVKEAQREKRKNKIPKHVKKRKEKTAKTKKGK
UniProt Q13546: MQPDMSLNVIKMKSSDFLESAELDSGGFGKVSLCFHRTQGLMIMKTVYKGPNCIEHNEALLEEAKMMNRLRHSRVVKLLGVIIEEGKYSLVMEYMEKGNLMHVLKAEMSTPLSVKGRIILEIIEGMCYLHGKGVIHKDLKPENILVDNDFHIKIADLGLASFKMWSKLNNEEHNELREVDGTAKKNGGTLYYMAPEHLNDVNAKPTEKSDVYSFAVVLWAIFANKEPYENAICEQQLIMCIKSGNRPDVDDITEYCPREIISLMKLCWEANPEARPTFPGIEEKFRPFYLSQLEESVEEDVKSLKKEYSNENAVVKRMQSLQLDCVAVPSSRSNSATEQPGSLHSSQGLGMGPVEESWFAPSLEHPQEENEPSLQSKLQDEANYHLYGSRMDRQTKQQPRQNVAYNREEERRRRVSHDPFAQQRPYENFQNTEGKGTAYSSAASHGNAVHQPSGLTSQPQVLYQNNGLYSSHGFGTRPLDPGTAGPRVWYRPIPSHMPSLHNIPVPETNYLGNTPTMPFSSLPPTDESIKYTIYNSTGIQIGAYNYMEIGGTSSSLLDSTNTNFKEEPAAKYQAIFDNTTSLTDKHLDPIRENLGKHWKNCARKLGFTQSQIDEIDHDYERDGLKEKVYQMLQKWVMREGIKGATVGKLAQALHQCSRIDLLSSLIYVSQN
UniProt Q01974, whole entry: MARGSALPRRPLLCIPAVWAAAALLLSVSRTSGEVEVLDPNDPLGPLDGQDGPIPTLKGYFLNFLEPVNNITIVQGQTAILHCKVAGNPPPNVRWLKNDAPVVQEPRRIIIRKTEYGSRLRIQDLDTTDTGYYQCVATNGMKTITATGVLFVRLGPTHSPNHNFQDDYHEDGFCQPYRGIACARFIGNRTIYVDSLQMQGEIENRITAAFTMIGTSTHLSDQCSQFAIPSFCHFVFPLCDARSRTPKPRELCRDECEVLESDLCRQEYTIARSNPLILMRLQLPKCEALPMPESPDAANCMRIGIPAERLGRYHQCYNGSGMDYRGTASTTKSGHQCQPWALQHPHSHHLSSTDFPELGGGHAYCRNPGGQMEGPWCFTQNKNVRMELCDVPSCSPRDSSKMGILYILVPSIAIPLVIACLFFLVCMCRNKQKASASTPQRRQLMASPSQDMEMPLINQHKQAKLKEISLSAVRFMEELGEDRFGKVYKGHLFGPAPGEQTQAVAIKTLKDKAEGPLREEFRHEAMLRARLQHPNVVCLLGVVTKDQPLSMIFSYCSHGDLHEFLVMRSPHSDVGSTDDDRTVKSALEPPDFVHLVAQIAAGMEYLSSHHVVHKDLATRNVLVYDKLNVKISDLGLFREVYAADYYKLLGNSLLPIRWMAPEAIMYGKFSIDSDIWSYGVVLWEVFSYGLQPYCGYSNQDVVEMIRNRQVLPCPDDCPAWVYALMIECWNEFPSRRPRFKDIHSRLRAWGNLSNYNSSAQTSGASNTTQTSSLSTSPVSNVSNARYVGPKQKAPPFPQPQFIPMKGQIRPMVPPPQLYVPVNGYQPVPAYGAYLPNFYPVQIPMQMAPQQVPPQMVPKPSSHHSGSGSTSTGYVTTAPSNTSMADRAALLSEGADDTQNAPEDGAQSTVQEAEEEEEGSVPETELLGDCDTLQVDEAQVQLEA
UniProt Q15418, whole entry: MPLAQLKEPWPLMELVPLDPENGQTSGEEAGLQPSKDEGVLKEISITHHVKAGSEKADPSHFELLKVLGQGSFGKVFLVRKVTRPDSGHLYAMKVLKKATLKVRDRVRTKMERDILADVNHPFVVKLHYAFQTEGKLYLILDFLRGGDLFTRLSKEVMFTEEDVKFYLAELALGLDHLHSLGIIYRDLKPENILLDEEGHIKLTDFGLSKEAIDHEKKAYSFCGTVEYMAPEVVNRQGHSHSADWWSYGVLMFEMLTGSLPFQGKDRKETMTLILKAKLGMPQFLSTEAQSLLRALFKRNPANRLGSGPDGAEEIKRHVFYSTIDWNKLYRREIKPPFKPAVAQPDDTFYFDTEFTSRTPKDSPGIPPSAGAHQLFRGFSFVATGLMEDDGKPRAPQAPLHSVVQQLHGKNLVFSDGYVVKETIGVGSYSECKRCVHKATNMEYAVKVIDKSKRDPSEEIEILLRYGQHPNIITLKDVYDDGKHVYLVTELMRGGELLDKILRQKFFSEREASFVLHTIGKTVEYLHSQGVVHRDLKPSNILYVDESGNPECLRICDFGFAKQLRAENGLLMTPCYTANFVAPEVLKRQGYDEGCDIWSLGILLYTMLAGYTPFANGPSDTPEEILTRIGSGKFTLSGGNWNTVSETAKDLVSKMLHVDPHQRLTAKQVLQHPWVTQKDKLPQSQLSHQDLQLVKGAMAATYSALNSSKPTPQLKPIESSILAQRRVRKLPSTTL
UniProt Q9NYA1, whole entry: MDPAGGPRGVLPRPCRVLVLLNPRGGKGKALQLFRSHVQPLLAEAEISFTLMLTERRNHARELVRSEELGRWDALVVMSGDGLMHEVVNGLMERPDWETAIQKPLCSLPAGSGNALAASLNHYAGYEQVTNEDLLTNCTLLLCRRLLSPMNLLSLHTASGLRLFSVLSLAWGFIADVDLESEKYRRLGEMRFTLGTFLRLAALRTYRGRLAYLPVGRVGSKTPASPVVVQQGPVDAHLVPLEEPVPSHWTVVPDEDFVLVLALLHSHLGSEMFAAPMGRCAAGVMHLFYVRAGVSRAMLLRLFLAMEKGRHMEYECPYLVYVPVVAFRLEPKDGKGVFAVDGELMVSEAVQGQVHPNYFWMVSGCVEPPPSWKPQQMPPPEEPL
UniProt Q9Y6E0: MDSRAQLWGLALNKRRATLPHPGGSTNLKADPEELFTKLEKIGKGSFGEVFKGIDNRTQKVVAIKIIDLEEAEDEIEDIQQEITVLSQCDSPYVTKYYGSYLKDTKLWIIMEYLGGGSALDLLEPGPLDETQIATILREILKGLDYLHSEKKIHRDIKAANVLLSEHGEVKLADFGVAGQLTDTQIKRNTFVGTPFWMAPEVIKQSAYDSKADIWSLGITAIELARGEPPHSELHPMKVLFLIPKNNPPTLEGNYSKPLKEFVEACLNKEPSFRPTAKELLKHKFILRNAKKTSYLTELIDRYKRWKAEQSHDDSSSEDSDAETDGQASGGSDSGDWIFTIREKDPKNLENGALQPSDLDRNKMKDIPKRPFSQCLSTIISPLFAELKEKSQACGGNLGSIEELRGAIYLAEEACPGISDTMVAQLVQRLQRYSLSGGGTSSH

Legend:
Test in all cases: kinase-Nluc reporter destabilization hit call (1 = scored as downregulated) (binary); higher = compound decreases kinase abundance
Conditions in all cases: K562; 2-18 h
RET = RET (UniProt P07949)
[1] = biological target: RET_M918T (clone: RET_mut) (UniProt P07949)
RIOK1 = RIOK1 (UniProt Q9BRS2)
RIPK1 = RIPK1 (UniProt Q13546)
RIPK2 = RIPK2 (UniProt O43353)
ROR2 = ROR2 (UniProt Q01974)
RPS6KA1 = RPS6KA1 (UniProt Q15418)
SPHK1 = SPHK1 (UniProt Q9NYA1)
SRC = SRC (UniProt P12931)
STK24 = STK24 (UniProt Q9Y6E0)

Measured: kinase-Nluc reporter destabilization hit call

CCn1nc(C2CCN(C(=O)CCO)CC2)nc1-c1cnc(N)c(-c2nnc(C(C)(C)C)o2)n1 (10 µM)
inactive: RET 0 | [1] 0 | RIOK1 = 0 | RIPK1 = 0 | RIPK2 = 0 | ROR2 = 0 | RPS6KA1 = 0 | SPHK1 = 0 | SRC 0 | STK24 = 0

O=C(NOCCO)c1ccc2cncn2c1Nc1ccc(I)cc1F (10 µM)
inactive: RET 0 | [1] 0 | RIOK1 = 0 | RIPK1 = 0 | RIPK2 = 0 | ROR2 = 0 | RPS6KA1 = 0 | SPHK1 = 0 | SRC 0 | STK24 = 0

CC(=O)Nc1nc2ccc(-c3cnc(C)c(NC(=O)OC4CCCCC4)c3)cc2s1 (10 µM)
inactive: RET 0 | [1] 0 | RIOK1 = 0 | RIPK1 = 0 | RIPK2 = 0 | ROR2 = 0 | RPS6KA1 = 0 | SPHK1 = 0 | SRC 0 | STK24 = 0

COc1ccc(CNc2nc(N(CCO)CCO)nc3c2ncn3C(C)C)cc1 (2.5 µM)
inactive: RET 0 | [1] 0 | RIOK1 = 0 | RIPK1 = 0 | RIPK2 = 0 | ROR2 = 0 | RPS6KA1 = 0 | SPHK1 = 0 | SRC 0 | STK24 = 0

No new results follow: 2 of the compounds above.
O=C(NOCCO)c1ccc2cncn2c1Nc1ccc(I)cc1F (10 µM)
inactive: RET 0 | [1] 0 | RIOK1 = 0 | RIPK1 = 0 | RIPK2 = 0 | ROR2 = 0 | RPS6KA1 = 0 | SPHK1 = 0 | SRC 0 | STK24 = 0

CC(=O)Nc1nc2ccc(-c3cnc(C)c(NC(=O)OC4CCCCC4)c3)cc2s1 (10 µM)
inactive: RET 0 | [1] 0 | RIOK1 = 0 | RIPK1 = 0 | RIPK2 = 0 | ROR2 = 0 | RPS6KA1 = 0 | SPHK1 = 0 | SRC 0 | STK24 = 0

Remaining list, next part

CC[C@@H](N)CNc1ccnc(-c2cc(-c3cnn(C)c3)ccc2O)n1 (2.5 µM)
inactive: RET 0 | [1] 0 | RIOK1 = 0 | RIPK1 = 0 | RIPK2 = 0 | ROR2 = 0 | RPS6KA1 = 0 | SPHK1 = 0 | SRC 0 | STK24 = 0

O=C(Nc1cccc(-c2nncn2C2CC2)c1)c1cc(-n2cnc(C3CC3)c2)ccn1 (10 µM)
inactive: RET 0 | [1] 0 | RIOK1 = 0 | RIPK1 = 0 | RIPK2 = 0 | ROR2 = 0 | RPS6KA1 = 0 | SPHK1 = 0 | SRC 0 | STK24 = 0

Cn1cc(-c2ccc3nnc(C(F)(F)c4ccc5ncccc5c4)n3n2)cn1 (10 µM)
inactive: RET 0 | [1] 0 | RIOK1 = 0 | RIPK1 = 0 | RIPK2 = 0 | ROR2 = 0 | RPS6KA1 = 0 | SPHK1 = 0 | SRC 0 | STK24 = 0

NS(=O)(=O)c1ccc(N2N=C(c3ccccc3)CC2c2ccccc2)cc1 (stereo not given) (10 µM)
inactive: RET 0 | [1] 0 | RIOK1 = 0 | RIPK1 = 0 | RIPK2 = 0 | ROR2 = 0 | RPS6KA1 = 0 | SPHK1 = 0 | SRC 0 | STK24 = 0

CCCC(=O)Nc1nc2c(ncn2[C@@H]2O[C@@H]3COP(=O)(O)O[C@H]3[C@H]2OC(=O)CCC)c(=O)[nH]1 [Dibutyryl-cGMP (sodium)] (10 µM)
inactive: RET 0 | [1] 0 | RIOK1 = 0 | RIPK1 = 0 | RIPK2 = 0 | ROR2 = 0 | RPS6KA1 = 0 | SPHK1 = 0 | SRC 0 | STK24 = 0

COc1cc(N2CCC(N(C)C)CC2)ccc1Nc1ncc(Cl)c(Nc2ccccc2P(C)(C)=O)n1 (2.5 µM)
inactive: RET 0 | [1] 0 | RIOK1 = 0 | RIPK1 = 0 | RIPK2 = 0 | ROR2 = 0 | RPS6KA1 = 0 | SPHK1 = 0 | SRC 0 | STK24 = 0

O=c1[nH]ccc2cc(OC3CCNCC3)ccc12 (10 µM)
inactive: RET 0 | [1] 0 | RIOK1 = 0 | RIPK1 = 0 | RIPK2 = 0 | ROR2 = 0 | RPS6KA1 = 0 | SPHK1 = 0 | SRC 0 | STK24 = 0

COc1cnccc1Nc1nc(-c2nn(Cc3c(F)cc(OCCO)cc3F)c3ccccc23)ncc1OC (10 µM)
inactive: RET 0 | [1] 0 | RIOK1 = 0 | RIPK1 = 0 | RIPK2 = 0 | ROR2 = 0 | RPS6KA1 = 0 | SPHK1 = 0 | SRC 0 | STK24 = 0

Cc1cc2ncc(-c3ccccc3)nc2cc1C (10 µM)
inactive: RET 0 | [1] 0 | RIOK1 = 0 | RIPK1 = 0 | RIPK2 = 0 | ROR2 = 0 | RPS6KA1 = 0 | SPHK1 = 0 | SRC 0 | STK24 = 0

CCc1ccc(C(=O)COc2ccc(CC3SC(=O)NC3=O)cc2)nc1 (stereo not given) (10 µM)
inactive: RET 0 | [1] 0 | RIOK1 = 0 | RIPK1 = 0 | RIPK2 = 0 | ROR2 = 0 | RPS6KA1 = 0 | SPHK1 = 0 | SRC 0 | STK24 = 0

CC[C@@H]1[C@H](F)C(=O)N[C@@H]1COc1nccc2cc(C(N)=O)c(OC)cc12 (10 µM)
inactive: RET 0 | [1] 0 | RIOK1 = 0 | RIPK1 = 0 | RIPK2 = 0 | ROR2 = 0 | RPS6KA1 = 0 | SPHK1 = 0 | SRC 0 | STK24 = 0

CC[C@H](C)[C@H](NC(=O)[C@H](CCC(=O)O)NC(=O)[C@H](CCCN=C(N)N)NC(=O)[C@H](CCCN=C(N)N)NC(=O)[C@@H](N)CCCCN)C(=O)N[C@@H](CC(C)C)C(=O)N[C@@H](CO)C(=O)N[C@@H](CCCN=C(N)N)C(=O)N[C@@H](CCCN=C(N)N)C(=O)N1CCC[C@H]1C(=O)N[C@@H](CO)C(=O)N[C@@H](Cc1ccc(O)cc1)C(=O)N[C@@H](CCCN=C(N)N)C(=O)O [CREBtide] (10 µM)
inactive: RET 0 | [1] 0 | RIOK1 = 0 | RIPK1 = 0 | RIPK2 = 0 | ROR2 = 0 | RPS6KA1 = 0 | SPHK1 = 0 | SRC 0 | STK24 = 0

CC[C@@H]1C(=O)N(C)c2cnc(Nc3ccc(C(=O)N[C@H]4CC[C@H](N5CCN(CC6CC6)CC5)CC4)cc3OC)nc2N1C(C)C [Volasertib] (2.5 µM)
inactive: RET 0 | [1] 0 | RIOK1 = 0 | RIPK1 = 0 | RIPK2 = 0 | ROR2 = 0 | RPS6KA1 = 0 | SPHK1 = 0 | SRC 0 | STK24 = 0

Nc1cc(C(F)F)c(-c2nc(N3C4CCC3COC4)nc(N3C4CCC3COC4)n2)cn1 (2.5 µM)
inactive: RET 0 | [1] 0 | RIOK1 = 0 | RIPK1 = 0 | RIPK2 = 0 | ROR2 = 0 | RPS6KA1 = 0 | SPHK1 = 0 | SRC 0 | STK24 = 0

NCCCCCCNS(=O)(=O)c1cccc2c(Cl)cccc12 [W-7 (hydrochloride)] (10 µM)
inactive: RET 0 | [1] 0 | RIOK1 = 0 | RIPK1 = 0 | RIPK2 = 0 | ROR2 = 0 | RPS6KA1 = 0 | SPHK1 = 0 | SRC 0 | STK24 = 0

COc1ccc2c(Oc3ccc(NC(=O)c4c(C)n(CC(C)(C)O)n(-c5ccccc5)c4=O)cc3F)ccnc2c1 (2.5 µM)
inactive: RET 0 | [1] 0 | RIOK1 = 0 | RIPK1 = 0 | RIPK2 = 0 | ROR2 = 0 | RPS6KA1 = 0 | SPHK1 = 0 | SRC 0 | STK24 = 0

O=c1nc(N2CCOCC2)oc2c(-c3cccc4c3sc3ccccc34)cccc12 (10 µM)
inactive: RET 0 | [1] 0 | RIOK1 = 0 | RIPK1 = 0 | RIPK2 = 0 | ROR2 = 0 | RPS6KA1 = 0 | SPHK1 = 0 | SRC 0 | STK24 = 0

O=C1NCCCc2c1oc1ccc(O)cc21 (10 µM)
inactive: RET 0 | [1] 0 | RIOK1 = 0 | RIPK1 = 0 | RIPK2 = 0 | ROR2 = 0 | RPS6KA1 = 0 | SPHK1 = 0 | SRC 0 | STK24 = 0

Oc1ccccc1C(=S)N1CCCC1 (10 µM)
inactive: RET 0 | [1] 0 | RIOK1 = 0 | RIPK1 = 0 | RIPK2 = 0 | ROR2 = 0 | RPS6KA1 = 0 | SPHK1 = 0 | SRC 0 | STK24 = 0

NC(=O)c1ccc(-c2cnn3ccc(NCc4cccnc4)nc23)cc1 (2.5 µM)
inactive: RET 0 | [1] 0 | RIOK1 = 0 | RIPK1 = 0 | RIPK2 = 0 | ROR2 = 0 | RPS6KA1 = 0 | SPHK1 = 0 | SRC 0 | STK24 = 0

Nc1[nH]c(=O)nc2c1ncn2[C@@H]1O[C@H](CO)[C@@H](O)[C@H]1O [Crotonoside] (10 µM)
inactive: RET 0 | [1] 0 | RIOK1 = 0 | RIPK1 = 0 | RIPK2 = 0 | ROR2 = 0 | RPS6KA1 = 0 | SPHK1 = 0 | SRC 0 | STK24 = 0

C=CC(=O)N1CCC[C@@H](n2nc(C(=O)Nc3ccc(CC(=O)N(C)C)c(C)c3C)c3c(N)ncnc32)C1 (10 µM)
inactive: RET 0 | [1] 0 | RIOK1 = 0 | RIPK1 = 0 | RIPK2 = 0 | ROR2 = 0 | RPS6KA1 = 0 | SPHK1 = 0 | SRC 0 | STK24 = 0

CC(C)n1cnc2c(Nc3cccc(Cl)c3)nc(NCCO)nc21 (10 µM)
inactive: RET 0 | [1] 0 | RIOK1 = 0 | RIPK1 = 0 | RIPK2 = 0 | ROR2 = 0 | RPS6KA1 = 0 | SPHK1 = 0 | SRC 0 | STK24 = 0
